In PubChem BioAssay AID588810 (Broad Institute, 2011):
The other results are listed elsewhere or left out. The source made no clear call on entries shown without one.

The chains behind the UniProt entries cited, without tags or fusion partners. Where a name states a change or a piece, a line headed by the entry shows the natural chain unless it says otherwise.
UniProt Q61009: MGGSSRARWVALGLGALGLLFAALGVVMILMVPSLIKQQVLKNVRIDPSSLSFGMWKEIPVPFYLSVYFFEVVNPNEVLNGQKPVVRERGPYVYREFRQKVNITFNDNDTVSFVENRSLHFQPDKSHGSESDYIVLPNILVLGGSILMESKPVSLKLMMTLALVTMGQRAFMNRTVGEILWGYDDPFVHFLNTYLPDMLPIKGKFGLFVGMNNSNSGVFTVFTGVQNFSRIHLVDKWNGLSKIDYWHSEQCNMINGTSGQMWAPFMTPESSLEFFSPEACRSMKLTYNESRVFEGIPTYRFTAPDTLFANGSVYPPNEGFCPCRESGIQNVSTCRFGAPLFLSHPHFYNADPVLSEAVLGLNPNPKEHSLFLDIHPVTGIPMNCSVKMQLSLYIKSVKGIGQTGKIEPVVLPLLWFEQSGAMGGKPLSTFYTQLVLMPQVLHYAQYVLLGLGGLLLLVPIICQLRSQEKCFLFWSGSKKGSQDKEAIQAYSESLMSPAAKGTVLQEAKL

Molecular target: Scavenger receptor class B member 1 (Mus musculus) (UniProt Q61009)
Experiment: increase of Alexa488-HDL binding at mSR-BI cells – ldlA[mSR-BI] cells, powder samples, set 2, orthogonal assay for SR-BI HDL uptake inhibitor project, dose response (AID 588810)
Conditions: ldlA[mSR-BI] CHO cells, Alexa488-HDL binding fluorescence, 3 h; at 35 µM (top of the series)
Method in brief: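 Benchmarks: positive control BLT-1 1 µM; Material: ldlA CHO cells expressing mouse SR-BI (ldlA[mSR-BI]); Also added: Alexa488-HDL with apolipoprotein-linked dye, 10 µg/mL; Technique: bottom-read fluorescence after two PBS washes; Compound dosing: dose series of compound; Timing: cells seeded one day ahead, 3 h HDL-compound exposure at 37 °C.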

Q: For `CCCCCCC1CCC/C1=N\NC(N)=S` (stereo unspecified), which activity increase (HDL binding) is on record?
A: 99.5%
